Experiment [1] addresses Beclin-1 (human (endogenous in J82 and UMUC3)) (UniProt Q14457). Kind of experiment: co-IP; endogenous proteins in J82 and UMUC3 lysates; IP Lysis Buffer with protease inhibitors, specific antibody or control IgG overnight at 4 °C, protein A/G magnetic beads, Western blot; for Beclin-1 with Bcl-2, VPS34, ATG14L and UVRAG the cells were with or without Gem (0.4 μM J82, 0.6 μM UMUC3) and TPI1 knock-down.

Protein sequences, listed by entry. Tags and fused reporters are not part of them.
UniProt P60174: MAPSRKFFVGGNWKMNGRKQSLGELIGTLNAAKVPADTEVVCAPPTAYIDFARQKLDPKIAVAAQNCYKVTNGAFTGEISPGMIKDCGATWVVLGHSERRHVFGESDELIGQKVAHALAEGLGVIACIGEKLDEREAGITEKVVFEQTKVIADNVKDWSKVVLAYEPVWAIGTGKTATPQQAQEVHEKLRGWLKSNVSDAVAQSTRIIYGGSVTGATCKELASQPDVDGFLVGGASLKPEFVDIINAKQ
UniProt P10415: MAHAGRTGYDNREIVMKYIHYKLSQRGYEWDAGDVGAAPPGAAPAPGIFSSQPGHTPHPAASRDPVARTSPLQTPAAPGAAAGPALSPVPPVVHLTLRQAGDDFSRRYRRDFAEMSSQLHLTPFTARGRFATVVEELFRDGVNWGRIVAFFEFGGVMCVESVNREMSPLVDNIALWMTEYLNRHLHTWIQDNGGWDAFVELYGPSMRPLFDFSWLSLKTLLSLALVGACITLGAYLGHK

For experiment [2], the target named is Triosephosphate isomerase 1 (TPI1) (human (endogenous in J82 and UMUC3)) (UniProt P60174). The experiment is described as above.
Experiment [3] has as its target Flag-TPI1 (UniProt P60174). Kind of experiment: co-IP; co-IP of TPI1 with truncated forms of Beclin-1 (NT 1-172, CT 173-450); cells and tags not stated.
A further experiment addresses MYC-Bcl2 (UniProt P10415). Kind of experiment: co-IP; exogenous co-IP in 293 T cells with HA-Beclin-1, MYC-Bcl2 and Flag-TPI1, each of the latter two with or without the other; HA-Beclin-1 band detected.
In experiment [4] the target is Flag-TPI1 (UniProt P60174). The description is as above.
The target in experiment [5] is Flag-TPI1 (UniProt P60174). Briefly: co-IP; exogenous co-IP in cells transfected with TPI1 and Beclin-1 expression plasmids; cells not given.

These are yes or no findings as the source states them, for the method shown. In cells and extracts the contact can be indirect. Some results given as binding are weak or reduced against the parent protein; the word gives no strength.

With Bcl-2 (from UniProt P10415 1-239), the binding entry in experiment [1] was “binds”.
Turning to Beclin-1 (from UniProt Q14457 1-450), in experiment [2], the binding result was “binds”.
Regarding “Beclin-1-NT (1-172) (from UniProt Q14457 1-172) (domain or fragment)”, in the experiment with Flag-TPI1 [3], the binding entry was “binds”.
As for HA-Beclin-1 (from UniProt Q14457 1-450), the binding entry with MYC-Bcl2, in the experiment with Flag-TPI1 [4] and with Flag-TPI1 [5] was “binds” each time.
